Experimental data: paper PMC9496679
These are yes or no findings as the source states them, for the method shown. In cells and extracts the contact can be indirect. Some binding calls cover weakened binding; strength is not graded here. For part of these data: Where a sequence is shown, tags or fusion partners need not be part of it.

Sequences of proteins named here, by UniProt entry; tags and fusion partners are left off. A change or cut given only in a name is not applied to a line headed by its entry.
UniProt Q99720: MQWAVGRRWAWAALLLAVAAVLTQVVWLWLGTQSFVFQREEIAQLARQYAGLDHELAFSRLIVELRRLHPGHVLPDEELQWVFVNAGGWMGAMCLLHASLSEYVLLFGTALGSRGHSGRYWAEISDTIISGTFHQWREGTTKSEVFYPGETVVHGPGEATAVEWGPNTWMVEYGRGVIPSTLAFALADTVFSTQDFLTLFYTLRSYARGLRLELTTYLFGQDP
UniProt Q15388: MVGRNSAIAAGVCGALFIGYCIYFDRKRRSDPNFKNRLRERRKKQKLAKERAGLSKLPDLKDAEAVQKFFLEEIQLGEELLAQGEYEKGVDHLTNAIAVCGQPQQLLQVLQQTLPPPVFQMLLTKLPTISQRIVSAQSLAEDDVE

T1: mRFP-tagged VLGR1_CTF (human) (UniProt Q8WXG9)
T1 sequence: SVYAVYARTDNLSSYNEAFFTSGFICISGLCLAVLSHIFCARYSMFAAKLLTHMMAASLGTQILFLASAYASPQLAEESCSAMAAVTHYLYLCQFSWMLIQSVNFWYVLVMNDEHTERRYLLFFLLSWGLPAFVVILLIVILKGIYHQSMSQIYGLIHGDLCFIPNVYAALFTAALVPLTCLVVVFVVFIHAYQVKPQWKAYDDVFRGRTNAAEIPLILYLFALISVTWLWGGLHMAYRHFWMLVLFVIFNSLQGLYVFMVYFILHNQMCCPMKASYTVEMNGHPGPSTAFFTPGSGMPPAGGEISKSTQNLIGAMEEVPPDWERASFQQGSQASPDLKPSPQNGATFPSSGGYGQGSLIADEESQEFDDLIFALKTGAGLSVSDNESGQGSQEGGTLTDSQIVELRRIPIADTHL

T2: HA-tagged VLGR1_CTF (human) (UniProt Q8WXG9)
T2 sequence: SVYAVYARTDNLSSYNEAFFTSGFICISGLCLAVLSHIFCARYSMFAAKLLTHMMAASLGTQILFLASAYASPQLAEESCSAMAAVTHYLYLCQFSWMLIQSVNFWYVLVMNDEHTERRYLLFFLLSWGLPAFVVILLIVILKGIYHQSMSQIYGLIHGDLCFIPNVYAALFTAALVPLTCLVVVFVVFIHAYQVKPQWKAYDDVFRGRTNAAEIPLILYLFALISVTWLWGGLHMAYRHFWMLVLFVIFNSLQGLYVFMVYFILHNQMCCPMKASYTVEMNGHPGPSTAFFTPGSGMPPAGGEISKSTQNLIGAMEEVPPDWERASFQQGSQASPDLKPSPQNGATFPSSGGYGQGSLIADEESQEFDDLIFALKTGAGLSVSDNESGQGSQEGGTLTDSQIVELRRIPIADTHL


How the values were obtained:
[1] = target: T1, mRFP-tagged VLGR1_CTF (human); experiment: co-IP; RFP-Trap agarose beads; mRFP-tagged bait expressed 24 h in HEK293T; Triton X-100 lysis buffer (50 mM Tris-HCl pH 7.5, 150 mM NaCl, 0.5% Triton X-100); 2 h at 4 °C; endogenous preys detected by western blot
[2] = target: very large G protein-coupled receptor 1 (VLGR1), endogenous (human (endogenous in HEK293T and HeLa)) (UniProt Q8WXG9); experiment: proximity ligation; in situ PLA in HeLa cells (Figure S3)
[3] = target: very large G protein-coupled receptor 1 (VLGR1), endogenous (human (endogenous in HEK293T and HeLa)) (UniProt Q8WXG9); experiment: proximity ligation; in situ PLA (Duolink In Situ Red, mouse/rabbit) in HEK293T cells, untransfected (endogenous VLGR1) or transfected with VLGR1_CTF-HA; signal at proximity under 40 nm
[4] = target: T2, HA-tagged VLGR1_CTF (human); experiment: as above
Myc-tagged S1R = Myc-tagged S1R (UniProt Q99720); experiment: co-IP; Myc-Trap agarose beads; S1R-Myc and VLGR1_CTF-mRFP co-expressed in HEK293T; Triton X-100 lysis buffer; 2 h at 4 °C; western blot

| binding [1] | binding [2] | binding [3] | binding [4] | binding (Myc-tagged S1R) | Molecule |
| --- | --- | --- | --- | --- | --- |
| binds | – | – | – | – | mitochondrial import receptor subunit TOM20, endogenous (from UniProt Q15388 1-145) |
| binds | binds | binds | binds | – | sigma-1 receptor (S1R), endogenous (from UniProt Q99720 1-223) |
| – | – | – | – | binds | mRFP-tagged VLGR1_CTF (domain or fragment, UniProt Q8WXG9-1 5891-6306) SVYAVYARTDNLSSYNEAFFTSGFICISGLCLAVLSHIFCARYSMFAAKLLTHMMAASLGTQILFLASAYASPQLAEESCSAMAAVTHYLYLCQFSWMLIQSVNFWYVLVMNDEHTERRYLLFFLLSWGLPAFVVILLIVILKGIYHQSMSQIYGLIHGDLCFIPNVYAALFTAALVPLTCLVVVFVVFIHAYQVKPQWKAYDDVFRGRTNAAEIPLILYLFALISVTWLWGGLHMAYRHFWMLVLFVIFNSLQGLYVFMVYFILHNQMCCPMKASYTVEMNGHPGPSTAFFTPGSGMPPAGGEISKSTQNLIGAMEEVPPDWERASFQQGSQASPDLKPSPQNGATFPSSGGYGQGSLIADEESQEFDDLIFALKTGAGLSVSDNESGQGSQEGGTLTDSQIVELRRIPIADTHL |
